In publication PMC6021170 one finds binding data, which are given here for four molecules.

Sequences of proteins named here, by UniProt entry; tags and fusion partners are left off. Residues count along the entry.
UniProt P07237, residues 18-508: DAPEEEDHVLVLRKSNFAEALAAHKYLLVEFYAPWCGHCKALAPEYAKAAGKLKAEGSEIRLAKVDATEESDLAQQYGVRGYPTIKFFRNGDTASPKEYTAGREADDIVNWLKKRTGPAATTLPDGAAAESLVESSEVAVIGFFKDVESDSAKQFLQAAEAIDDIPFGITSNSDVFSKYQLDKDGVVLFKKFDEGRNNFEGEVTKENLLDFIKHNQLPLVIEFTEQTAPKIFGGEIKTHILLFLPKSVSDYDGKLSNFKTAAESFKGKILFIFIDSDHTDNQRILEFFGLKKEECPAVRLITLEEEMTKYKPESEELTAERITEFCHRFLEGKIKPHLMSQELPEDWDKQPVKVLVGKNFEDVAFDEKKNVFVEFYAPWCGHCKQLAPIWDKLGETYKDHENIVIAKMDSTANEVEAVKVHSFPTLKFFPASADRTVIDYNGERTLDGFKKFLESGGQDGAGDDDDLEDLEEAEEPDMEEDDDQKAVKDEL
UniProt P11021, residues 19-654: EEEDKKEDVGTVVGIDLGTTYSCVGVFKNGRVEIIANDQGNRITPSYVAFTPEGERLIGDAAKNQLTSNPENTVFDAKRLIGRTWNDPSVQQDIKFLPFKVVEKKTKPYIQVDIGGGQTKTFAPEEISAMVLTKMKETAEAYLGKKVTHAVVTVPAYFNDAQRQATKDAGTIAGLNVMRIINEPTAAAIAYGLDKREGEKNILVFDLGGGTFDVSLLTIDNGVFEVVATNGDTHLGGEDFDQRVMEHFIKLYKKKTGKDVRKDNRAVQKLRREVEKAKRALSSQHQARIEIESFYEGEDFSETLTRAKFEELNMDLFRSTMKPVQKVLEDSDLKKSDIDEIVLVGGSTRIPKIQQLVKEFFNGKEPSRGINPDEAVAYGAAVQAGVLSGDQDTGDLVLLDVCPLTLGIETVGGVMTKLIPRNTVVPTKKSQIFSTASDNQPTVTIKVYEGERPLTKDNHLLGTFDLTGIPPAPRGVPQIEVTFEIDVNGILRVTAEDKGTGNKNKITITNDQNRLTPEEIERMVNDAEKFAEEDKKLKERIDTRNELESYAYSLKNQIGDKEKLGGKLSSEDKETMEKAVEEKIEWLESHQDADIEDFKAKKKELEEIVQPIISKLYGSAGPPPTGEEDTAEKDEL

Positions count from the first letter of the chain named. No constants are given. Whether binding was seen depends on the method and setting. In cells and extracts the contact can be indirect. Some entries that bind do so weakly or less than the wild type.

One test addresses T1, human corin WT (human) (UniProt Q9Y5Q5).
T1 sequence: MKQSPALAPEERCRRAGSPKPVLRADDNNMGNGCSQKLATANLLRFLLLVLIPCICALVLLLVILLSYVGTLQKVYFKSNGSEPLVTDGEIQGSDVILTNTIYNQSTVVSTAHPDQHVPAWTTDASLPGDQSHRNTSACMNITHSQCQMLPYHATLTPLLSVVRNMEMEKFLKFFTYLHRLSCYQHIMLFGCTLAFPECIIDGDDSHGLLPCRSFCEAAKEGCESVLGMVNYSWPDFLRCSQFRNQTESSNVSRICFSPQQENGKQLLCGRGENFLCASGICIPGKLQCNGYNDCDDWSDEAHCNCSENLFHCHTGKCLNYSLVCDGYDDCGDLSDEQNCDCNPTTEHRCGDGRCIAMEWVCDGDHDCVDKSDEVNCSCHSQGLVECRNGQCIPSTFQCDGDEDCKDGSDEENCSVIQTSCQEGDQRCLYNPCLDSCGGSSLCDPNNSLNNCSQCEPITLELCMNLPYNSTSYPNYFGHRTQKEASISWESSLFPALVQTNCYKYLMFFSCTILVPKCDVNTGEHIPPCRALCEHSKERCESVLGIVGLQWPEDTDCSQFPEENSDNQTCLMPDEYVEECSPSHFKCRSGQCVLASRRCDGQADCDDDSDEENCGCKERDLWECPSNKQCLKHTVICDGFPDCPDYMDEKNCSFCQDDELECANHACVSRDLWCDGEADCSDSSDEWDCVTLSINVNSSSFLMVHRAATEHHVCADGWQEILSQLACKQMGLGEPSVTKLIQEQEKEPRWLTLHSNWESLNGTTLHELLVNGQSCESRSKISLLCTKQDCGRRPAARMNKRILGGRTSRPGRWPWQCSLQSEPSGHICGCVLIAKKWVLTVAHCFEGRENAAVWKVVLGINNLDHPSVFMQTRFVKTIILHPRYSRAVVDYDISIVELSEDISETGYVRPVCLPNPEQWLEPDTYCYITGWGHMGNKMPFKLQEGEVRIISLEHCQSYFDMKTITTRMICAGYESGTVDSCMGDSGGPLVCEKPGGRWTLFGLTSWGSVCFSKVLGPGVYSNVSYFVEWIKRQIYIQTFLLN
Put plainly: co-IP; lysates of transfected HEK293 cells immunoprecipitated with anti-V5 antibody and protein A-Sepharose; co-precipitated endogenous chaperones detected by western blotting and densitometry; cells without or with DNJ (2 mM, 37°C, 24-48 hr).

The target of test [1] is T2, human corin mutant N1022Q (human) (UniProt Q9Y5Q5).
T2 sequence: T1 sequence with N1022Q
The test is described as above.

Regarding “calreticulin (from UniProt P27797 18-417)”, the binding result (with human corin WT (human); in test [1]) was “binds” each time.
For “protein disulfide isomerase (from UniProt P07237 18-508)”, the binding entry (with human corin WT (human); in test [1]) was “binds” throughout.
Turning to “BiP (binding immunoglobulin protein) (from UniProt P11021 19-654)”, in the test with human corin WT (human), the binding result is “binds”.

B1: calnexin (protein, UniProt P27824 21-592)
chain: HDGHDDDVIDIEDDLDDVIEEVEDSKPDTTAPPSSPKVTYKAPVPTGEVYFADSFDRGTLSGWILSKAKKDDTDDEIAKYDGKWEVEEMKESKLPGDKGLVLMSRAKHHAISAKLNKPFLFDTKPLIVQYEVNFQNGIECGGAYVKLLSKTPELNLDQFHDKTPYTIMFGPDKCGEDYKLHFIFRHKNPKTGIYEEKHAKRPDADLKTYFTDKKTHLYTLILNPDNSFEILVDQSVVNSGNLLNDMTPPVNPSREIEDPEDRKPEDWDERPKIPDPEAVKPDDWDEDAPAKIPDEEATKPEGWLDDEPEYVPDPDAEKPEDWDEDMDGEWEAPQIANPRCESAPGCGVWQRPVIDNPNYKGKWKPPMIDNPSYQGIWKPRKIPNPDFFEDLEPFRMTPFSAIGLELWSMTSDIFFDNFIICADRRIVDDWANDGWGLKKAADGAAEPGVVGQMIEAAEERPWLWVVYILTVALPVFLVILFCCSGKKQTSGMEYKKTDAPQPDVKEEEEEKEEEKDKGDEEEEGEEKLEEKQKSDAEEDGGTVSQEEEDRKPKAEEDEILNRSPRNRKPRRE
For the molecule B1, in the test with human corin WT (human), the binding result was “binds”.
